Results deposited as PubChem BioAssay AID1259308 (NCATS, 2017).
Assay: 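Genes whose loss raises luciferase production in HEK293 cells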 (primary screen). Cells: human HEK293 embryonic kidney cells stably expressing firefly luciferase (HEK-CMV-Luc2-Hygro). Reagent: single siRNA against human genes, 0.8 pmol siRNA per well. Time to read-out: 72 h. Detection: 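Reporter luminescence and viable-cell signal on separate replicate plates, given as percent of non-targeting control and median/MAD z-scores, plus per-cell luciferase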. Scale: total luciferase, z-score: higher = more reporter protein produced. Call rule: 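Active when the median/MAD z-score for overall luciferase is greater than 3; a gene was taken forward for validation with new siRNAs if at least two of its three siRNAs passed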. Meaning of the calls: active = raised luciferase; inactive = no rise.
In all, the deposit lists about 59,000 reagents; shown is an unselected part. About 1,510 of all reagents (2.6%) were called active. 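Calls use total luciferase alone and ignore viability, so some active siRNAs may act by altering cell number.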 Reagents against one gene are numbered here. Further read-outs or replicates are left out here.

The first 2 records, ahead of the listing:
TNF (tumor necrosis factor) #1
- total luciferase, z-score: 6.36
- outcome: active

TNF (tumor necrosis factor) #2
- total luciferase, z-score: -0.698
- outcome: inactive

Results, repeating the preview:
TNF (tumor necrosis factor) #1
- total luciferase, z-score: 6.36
- outcome: active

TNF (tumor necrosis factor) #2
- total luciferase, z-score: -0.698
- outcome: inactive

TNF (tumor necrosis factor) #3
- total luciferase, z-score: 0.112
- outcome: inactive

SLC15A4 #1
- total luciferase, z-score: -1.17
- outcome: inactive

SLC15A4 #2
- total luciferase, z-score: -0.594
- outcome: inactive

SLC15A4 #3
- total luciferase, z-score: 0.261
- outcome: inactive

TAMALIN (trafficking regulator and scaffold protein tamalin) #1
- total luciferase, z-score: -1.54
- outcome: inactive

TAMALIN (trafficking regulator and scaffold protein tamalin) #2
- total luciferase, z-score: -0.209
- outcome: inactive

TAMALIN (trafficking regulator and scaffold protein tamalin) #3
- total luciferase, z-score: 2.22
- outcome: inactive

PDXK (pyridoxal kinase) #1
- total luciferase, z-score: 1.79
- outcome: inactive

PDXK (pyridoxal kinase) #2
- total luciferase, z-score: -0.931
- outcome: inactive

PDXK (pyridoxal kinase) #3
- total luciferase, z-score: -1.39
- outcome: inactive

CLCN2 (chloride voltage-gated channel 2) #1
- total luciferase, z-score: 0.563
- outcome: inactive

CLCN2 (chloride voltage-gated channel 2) #2
- total luciferase, z-score: -0.147
- outcome: inactive

CLCN2 (chloride voltage-gated channel 2) #3
- total luciferase, z-score: 1.06
- outcome: inactive

DNAJB8 (DnaJ heat shock protein family (Hsp40) member B8) #1
- total luciferase, z-score: 0.522
- outcome: inactive

DNAJB8 (DnaJ heat shock protein family (Hsp40) member B8) #2
- total luciferase, z-score: 0.0659
- outcome: inactive

DNAJB8 (DnaJ heat shock protein family (Hsp40) member B8) #3
- total luciferase, z-score: -0.236
- outcome: inactive

ARTN (artemin) #1
- total luciferase, z-score: -1.31
- outcome: inactive

ARTN (artemin) #2
- total luciferase, z-score: -0.197
- outcome: inactive

ARTN (artemin) #3
- total luciferase, z-score: -1.06
- outcome: inactive
